Experimental data reported in ChEMBL document CHEMBL4316593 (Eur J Med Chem, 2019).
The source gives many values for each of these; only a part stands here.

What was measured:
Assay type in all cases: cell-based
Settings in all cases: U-87MG ATCC
[1] = Inhibition of RTK/PI3K/AKT/mTOR signaling in human U87 cells assessed as up regulation of S100A4 gene expression at cytotoxic IC50 measured after 48 hrs relative to control
[2] = Inhibition of RTK/PI3K/AKT/mTOR signaling in human U87 cells assessed as down regulation of FARP1 gene expression at cytotoxic IC50 measured after 48 hrs relative to control
[3] = Inhibition of RTK/PI3K/AKT/mTOR signaling in human U87 cells assessed as up regulation of CLDN3 gene expression at cytotoxic IC50 measured after 48 hrs relative to control
[4] = Inhibition of RTK/PI3K/AKT/mTOR signaling in human U87 cells assessed as up regulation of P4HA1 gene expression at cytotoxic IC50 measured after 48 hrs relative to control
[5] = Inhibition of RTK/PI3K/AKT/mTOR signaling in human U87 cells assessed as down regulation of DCTN5 gene expression at cytotoxic IC50 measured after 48 hrs relative to control
[6] = Inhibition of RTK/PI3K/AKT/mTOR signaling in human U87 cells assessed as down regulation of MDC1 gene expression at cytotoxic IC50 measured after 48 hrs relative to control
[7] = Inhibition of RTK/PI3K/AKT/mTOR signaling in human U87 cells assessed as down regulation of PLAGL1 gene expression at cytotoxic IC50 measured after 48 hrs relative to control
[8] = Inhibition of RTK/PI3K/AKT/mTOR signaling in human U87 cells assessed as down regulation of ABI1 gene expression at cytotoxic IC50 measured after 48 hrs relative to control
[9] = Inhibition of RTK/PI3K/AKT/mTOR signaling in human U87 cells assessed as up regulation of PLAU gene expression at cytotoxic IC50 measured after 48 hrs relative to control
[10] = Inhibition of RTK/PI3K/AKT/mTOR signaling in human U87 cells assessed as down regulation of EXO1 gene expression at cytotoxic IC50 measured after 48 hrs relative to control
[11] = Inhibition of RTK/PI3K/AKT/mTOR signaling in human U87 cells assessed as down regulation of FCF1 gene expression at cytotoxic IC50 measured after 48 hrs relative to control
[12] = Inhibition of RTK/PI3K/AKT/mTOR signaling in human U87 cells assessed as up regulation of chromosome 14 open reading frame 159 gene expression at cytotoxic IC50 measured after 48 hrs relative to control
[13] = Inhibition of RTK/PI3K/AKT/mTOR signaling in human U87 cells assessed as up regulation of EFHD2 gene expression at cytotoxic IC50 measured after 48 hrs relative to control
[14] = Inhibition of RTK/PI3K/AKT/mTOR signaling in human U87 cells assessed as up regulation of F-box and leucine rich repeat protein 16 gene expression at cytotoxic IC50 measured after 48 hrs relative to control
[15] = Inhibition of RTK/PI3K/AKT/mTOR signaling in human U87 cells assessed as down regulation of AP2A1 gene expression at cytotoxic IC50 measured after 48 hrs relative to control
[16] = Inhibition of RTK/PI3K/AKT/mTOR signaling in human U87 cells assessed as up regulation of small integral membrane protein 3 gene expression at cytotoxic IC50 measured after 48 hrs relative to control
[17] = Inhibition of RTK/PI3K/AKT/mTOR signaling in human U87 cells assessed as down regulation of DYNLL2 gene expression at cytotoxic IC50 measured after 48 hrs relative to control
[18] = Inhibition of RTK/PI3K/AKT/mTOR signaling in human U87 cells assessed as up regulation of PDE9A gene expression at cytotoxic IC50 measured after 48 hrs relative to control
[19] = Inhibition of RTK/PI3K/AKT/mTOR signaling in human U87 cells assessed as up regulation of aspartyl-tRNA synthetase gene expression at cytotoxic IC50 measured after 48 hrs relative to control
[20] = Inhibition of RTK/PI3K/AKT/mTOR signaling in human U87 cells assessed as up regulation of RPL27A gene expression at cytotoxic IC50 measured after 48 hrs relative to control
[21] = Inhibition of RTK/PI3K/AKT/mTOR signaling in human U87 cells assessed as up regulation of chromobox 5 gene expression at cytotoxic IC50 measured after 48 hrs relative to control
[22] = Inhibition of RTK/PI3K/AKT/mTOR signaling in human U87 cells assessed as down regulation of ARPC5L gene expression at cytotoxic IC50 measured after 48 hrs relative to control
[23] = Inhibition of RTK/PI3K/AKT/mTOR signaling in human U87 cells assessed as up regulation of egl-9 family hypoxia inducible factor 1 gene expression at cytotoxic IC50 measured after 48 hrs relative to control
[24] = Inhibition of RTK/PI3K/AKT/mTOR signaling in human U87 cells assessed as down regulation of ZNF711 gene expression at cytotoxic IC50 measured after 48 hrs relative to control
[25] = Inhibition of RTK/PI3K/AKT/mTOR signaling in human U87 cells assessed as up regulation of plexin B1 gene expression at cytotoxic IC50 measured after 48 hrs relative to control
[26] = Inhibition of RTK/PI3K/AKT/mTOR signaling in human U87 cells assessed as up regulation of SLC35F2 gene expression at cytotoxic IC50 measured after 48 hrs relative to control
[27] = Inhibition of RTK/PI3K/AKT/mTOR signaling in human U87 cells assessed as up regulation of androgen induced 1 gene expression at cytotoxic IC50 measured after 48 hrs relative to control
[28] = Inhibition of RTK/PI3K/AKT/mTOR signaling in human U87 cells assessed as down regulation of TNRC6C gene expression at cytotoxic IC50 measured after 48 hrs relative to control
[29] = Inhibition of RTK/PI3K/AKT/mTOR signaling in human U87 cells assessed as down regulation of MAGEB2 gene expression at cytotoxic IC50 measured after 48 hrs relative to control
[30] = Inhibition of RTK/PI3K/AKT/mTOR signaling in human U87 cells assessed as down regulation of SON gene expression at cytotoxic IC50 measured after 48 hrs relative to control
[31] = Inhibition of RTK/PI3K/AKT/mTOR signaling in human U87 cells assessed as up regulation of low density lipoprotein receptor class A domain containing 3 gene expression at cytotoxic IC50 measured after 48 hrs relative to control
[32] = Inhibition of RTK/PI3K/AKT/mTOR signaling in human U87 cells assessed as down regulation of ZNF431 gene expression at cytotoxic IC50 measured after 48 hrs relative to control

CC(=O)C(=NNc1ccccc1C#N)C(C)=O
log2FC [1]: 2.36 | log2FC [2]: -0.732 | log2FC [3]: 1.71 | log2FC [4]: 3.49 | log2FC [5]: -1.02 | log2FC [6]: -0.468 | log2FC [7]: -0.844 | log2FC [8]: -0.628 | log2FC [9]: 2.38 | log2FC [10]: -2.06 | log2FC [11]: -0.561 | log2FC [12]: 1.11 | log2FC [13]: 1.77 | log2FC [14]: 0.765 | log2FC [15]: -0.649 | log2FC [16]: 0.891 | log2FC [17]: -0.762 | log2FC [18]: 1.96 | log2FC [19]: 1.35 | log2FC [20]: 0.356 | log2FC [21]: 0.82 | log2FC [22]: -0.6 | log2FC [23]: 1.32 | log2FC [24]: -0.776 | log2FC [25]: 1.08 | log2FC [26]: 0.431 | log2FC [27]: 0.974 | log2FC [28]: -0.667 | log2FC [29]: -0.469 | log2FC [30]: -0.43 | log2FC [31]: 1.32 | log2FC [32]: -1.65
